The assay addresses PSMD12-GFP (UniProt O00232). Kind of assay: co-IP; HEK293T transfected with a GFP-tagged bait (prey endogenous or co-transfected); lysed in NP-40 lysis buffer at 48 hpt; anti-GFP beads, 4 h or overnight at 4°C; Western blot (Fig. 3C, 4C, 4D, 4H; Fig. 5B in CD63-knockout HEK293T-sgCD63 cells).

By UniProt entry, the sequences of proteins in these tests, tags left out.
UniProt O00232: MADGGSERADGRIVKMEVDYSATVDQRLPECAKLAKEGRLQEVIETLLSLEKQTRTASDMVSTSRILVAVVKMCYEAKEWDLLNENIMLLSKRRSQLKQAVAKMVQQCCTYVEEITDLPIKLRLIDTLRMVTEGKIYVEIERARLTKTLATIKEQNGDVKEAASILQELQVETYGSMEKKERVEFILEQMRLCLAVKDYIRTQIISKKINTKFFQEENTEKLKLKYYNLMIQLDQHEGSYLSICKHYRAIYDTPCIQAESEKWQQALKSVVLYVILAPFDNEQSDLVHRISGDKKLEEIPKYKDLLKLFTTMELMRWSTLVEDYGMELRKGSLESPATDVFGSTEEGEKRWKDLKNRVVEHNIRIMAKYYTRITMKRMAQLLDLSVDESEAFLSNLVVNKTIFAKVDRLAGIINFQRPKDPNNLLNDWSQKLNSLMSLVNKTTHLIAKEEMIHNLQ
UniProt P08962: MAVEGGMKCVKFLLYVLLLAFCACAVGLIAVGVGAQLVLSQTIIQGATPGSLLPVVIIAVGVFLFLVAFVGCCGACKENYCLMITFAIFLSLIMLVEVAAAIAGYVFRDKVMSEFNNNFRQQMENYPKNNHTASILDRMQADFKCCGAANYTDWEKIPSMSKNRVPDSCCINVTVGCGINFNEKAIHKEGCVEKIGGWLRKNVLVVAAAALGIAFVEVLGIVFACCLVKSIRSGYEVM

No constants are given. Whether binding was seen depends on the method and setting. Binding seen in cells or lysates may run through a third protein. Some results given as binding are weak or reduced against the parent protein; the word gives no strength.

Consider “endogenous CD63 (from UniProt P08962 1-238)”, for which the binding result was “binds”.
